In the supplement of paper PMC11732987, “Enantioselective OTUD7B fragment discovery through chemoproteomics screening and high-throughput optimisation” (Communications Chemistry, 2025):
Some of the results follow. The data scatter; read single values as rough.

Protein sequences, listed by entry. Tags and fused reporters are not part of them. Lines headed by an entry give the natural chain unless they say otherwise; changes in a name come on top. Residues count along the entry.
UniProt Q7Z478: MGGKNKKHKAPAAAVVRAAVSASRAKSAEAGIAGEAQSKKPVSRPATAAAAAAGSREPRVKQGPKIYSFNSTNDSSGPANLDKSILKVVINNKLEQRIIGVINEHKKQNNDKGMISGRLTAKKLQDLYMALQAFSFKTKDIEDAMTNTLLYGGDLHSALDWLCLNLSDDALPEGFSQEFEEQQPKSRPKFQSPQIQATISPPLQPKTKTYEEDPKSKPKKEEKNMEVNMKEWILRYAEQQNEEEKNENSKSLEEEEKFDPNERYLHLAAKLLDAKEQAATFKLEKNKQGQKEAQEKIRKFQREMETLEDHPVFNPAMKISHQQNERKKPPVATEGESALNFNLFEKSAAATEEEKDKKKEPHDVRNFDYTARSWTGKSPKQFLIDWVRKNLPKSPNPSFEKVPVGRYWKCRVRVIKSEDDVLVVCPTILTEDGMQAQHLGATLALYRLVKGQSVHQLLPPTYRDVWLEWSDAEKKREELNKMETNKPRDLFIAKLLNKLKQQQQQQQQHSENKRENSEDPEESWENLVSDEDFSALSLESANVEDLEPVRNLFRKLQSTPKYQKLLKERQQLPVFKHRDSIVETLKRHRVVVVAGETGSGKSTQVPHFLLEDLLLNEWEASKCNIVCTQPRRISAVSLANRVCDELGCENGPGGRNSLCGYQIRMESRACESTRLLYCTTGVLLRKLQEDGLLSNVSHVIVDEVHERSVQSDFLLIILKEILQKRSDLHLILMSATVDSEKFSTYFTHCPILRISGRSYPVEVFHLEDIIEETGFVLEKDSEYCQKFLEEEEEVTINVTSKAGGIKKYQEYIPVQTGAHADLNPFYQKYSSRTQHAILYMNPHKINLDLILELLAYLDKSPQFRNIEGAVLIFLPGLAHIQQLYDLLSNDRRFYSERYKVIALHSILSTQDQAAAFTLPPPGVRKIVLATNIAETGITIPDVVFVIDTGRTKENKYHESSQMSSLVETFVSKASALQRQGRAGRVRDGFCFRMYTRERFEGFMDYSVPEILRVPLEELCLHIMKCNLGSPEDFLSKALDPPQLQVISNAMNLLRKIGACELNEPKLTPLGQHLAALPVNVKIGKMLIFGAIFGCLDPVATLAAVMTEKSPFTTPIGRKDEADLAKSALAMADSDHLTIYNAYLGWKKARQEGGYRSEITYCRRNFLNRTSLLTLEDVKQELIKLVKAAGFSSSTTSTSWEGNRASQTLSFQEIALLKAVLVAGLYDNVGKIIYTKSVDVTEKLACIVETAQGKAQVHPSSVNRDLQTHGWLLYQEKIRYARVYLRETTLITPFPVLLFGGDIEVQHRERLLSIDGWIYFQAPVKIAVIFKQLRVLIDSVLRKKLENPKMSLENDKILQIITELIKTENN
UniProt Q9H2U1, 215-236: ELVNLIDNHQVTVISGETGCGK
UniProt O75165, whole entry, looked up: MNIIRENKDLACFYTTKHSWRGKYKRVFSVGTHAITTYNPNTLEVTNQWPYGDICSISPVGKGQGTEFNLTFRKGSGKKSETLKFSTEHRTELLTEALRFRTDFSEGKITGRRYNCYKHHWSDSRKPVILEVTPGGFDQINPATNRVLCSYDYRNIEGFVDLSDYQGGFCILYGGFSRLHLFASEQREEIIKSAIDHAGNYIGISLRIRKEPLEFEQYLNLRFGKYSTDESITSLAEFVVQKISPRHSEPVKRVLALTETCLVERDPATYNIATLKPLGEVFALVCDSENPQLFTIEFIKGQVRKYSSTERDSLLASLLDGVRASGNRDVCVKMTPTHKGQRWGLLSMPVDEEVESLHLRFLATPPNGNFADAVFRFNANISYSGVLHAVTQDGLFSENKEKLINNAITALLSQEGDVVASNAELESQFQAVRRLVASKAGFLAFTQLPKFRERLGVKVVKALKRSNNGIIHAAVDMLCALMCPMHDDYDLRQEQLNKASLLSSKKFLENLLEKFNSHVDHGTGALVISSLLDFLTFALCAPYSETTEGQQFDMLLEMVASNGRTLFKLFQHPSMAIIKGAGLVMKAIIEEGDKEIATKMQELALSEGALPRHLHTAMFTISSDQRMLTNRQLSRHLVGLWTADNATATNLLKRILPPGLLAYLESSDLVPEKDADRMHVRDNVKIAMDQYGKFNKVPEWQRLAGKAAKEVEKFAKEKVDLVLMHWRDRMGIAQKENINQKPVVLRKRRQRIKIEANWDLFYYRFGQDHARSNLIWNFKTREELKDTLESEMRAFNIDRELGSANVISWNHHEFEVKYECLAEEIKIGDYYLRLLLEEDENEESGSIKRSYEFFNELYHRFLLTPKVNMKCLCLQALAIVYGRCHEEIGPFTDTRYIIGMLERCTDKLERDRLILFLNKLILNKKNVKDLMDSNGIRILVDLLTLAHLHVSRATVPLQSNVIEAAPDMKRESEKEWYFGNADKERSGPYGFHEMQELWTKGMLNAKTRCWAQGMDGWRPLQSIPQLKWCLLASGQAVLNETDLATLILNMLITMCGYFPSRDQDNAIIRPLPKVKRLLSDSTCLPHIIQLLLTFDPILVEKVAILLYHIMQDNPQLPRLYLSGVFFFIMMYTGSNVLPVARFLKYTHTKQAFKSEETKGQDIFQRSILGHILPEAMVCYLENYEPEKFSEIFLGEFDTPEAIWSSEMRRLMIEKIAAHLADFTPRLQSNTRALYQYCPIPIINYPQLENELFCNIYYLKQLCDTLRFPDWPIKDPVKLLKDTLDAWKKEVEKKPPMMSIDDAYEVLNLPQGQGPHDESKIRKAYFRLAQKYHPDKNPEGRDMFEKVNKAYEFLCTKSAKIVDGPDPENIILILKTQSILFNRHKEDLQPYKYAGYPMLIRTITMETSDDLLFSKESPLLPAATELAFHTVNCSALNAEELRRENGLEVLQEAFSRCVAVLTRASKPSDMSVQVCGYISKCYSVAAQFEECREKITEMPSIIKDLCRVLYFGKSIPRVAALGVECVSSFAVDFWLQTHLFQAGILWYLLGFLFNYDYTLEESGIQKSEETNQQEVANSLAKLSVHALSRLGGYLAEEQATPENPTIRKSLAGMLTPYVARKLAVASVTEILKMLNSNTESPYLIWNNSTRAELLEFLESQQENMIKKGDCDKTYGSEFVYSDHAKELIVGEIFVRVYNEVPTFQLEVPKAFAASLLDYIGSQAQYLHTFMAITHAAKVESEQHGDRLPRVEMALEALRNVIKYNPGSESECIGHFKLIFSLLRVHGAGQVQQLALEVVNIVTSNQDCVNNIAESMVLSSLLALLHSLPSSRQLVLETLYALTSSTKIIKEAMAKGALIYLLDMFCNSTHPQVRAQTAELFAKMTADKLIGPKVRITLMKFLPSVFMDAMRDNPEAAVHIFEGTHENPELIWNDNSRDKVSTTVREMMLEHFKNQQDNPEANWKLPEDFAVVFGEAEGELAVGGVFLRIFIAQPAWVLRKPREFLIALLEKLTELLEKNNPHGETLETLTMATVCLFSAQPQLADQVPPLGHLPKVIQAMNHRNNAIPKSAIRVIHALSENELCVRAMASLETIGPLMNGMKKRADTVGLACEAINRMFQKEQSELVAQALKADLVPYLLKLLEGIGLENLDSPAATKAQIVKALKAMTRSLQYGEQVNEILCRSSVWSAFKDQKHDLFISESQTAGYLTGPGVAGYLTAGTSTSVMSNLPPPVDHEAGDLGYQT
UniProt Q9H6R0: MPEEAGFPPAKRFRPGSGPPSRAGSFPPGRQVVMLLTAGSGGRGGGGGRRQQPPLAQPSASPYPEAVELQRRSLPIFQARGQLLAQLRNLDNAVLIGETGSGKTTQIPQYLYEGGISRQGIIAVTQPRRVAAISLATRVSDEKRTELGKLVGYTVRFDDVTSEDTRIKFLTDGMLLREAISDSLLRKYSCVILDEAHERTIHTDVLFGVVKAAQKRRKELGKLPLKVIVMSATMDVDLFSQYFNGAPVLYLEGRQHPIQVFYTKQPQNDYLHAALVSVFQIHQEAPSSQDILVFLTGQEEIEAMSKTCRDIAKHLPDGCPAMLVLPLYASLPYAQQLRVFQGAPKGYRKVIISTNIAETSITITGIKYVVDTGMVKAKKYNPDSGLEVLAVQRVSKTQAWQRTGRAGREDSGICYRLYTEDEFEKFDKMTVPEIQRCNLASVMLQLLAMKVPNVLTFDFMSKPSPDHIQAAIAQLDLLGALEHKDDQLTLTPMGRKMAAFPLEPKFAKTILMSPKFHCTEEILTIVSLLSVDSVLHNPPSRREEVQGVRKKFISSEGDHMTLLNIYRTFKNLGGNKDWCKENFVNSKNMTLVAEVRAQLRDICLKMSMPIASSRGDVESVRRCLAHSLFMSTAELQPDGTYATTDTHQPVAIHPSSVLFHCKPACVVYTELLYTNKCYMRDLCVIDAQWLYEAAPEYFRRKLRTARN
UniProt Q8WYQ5: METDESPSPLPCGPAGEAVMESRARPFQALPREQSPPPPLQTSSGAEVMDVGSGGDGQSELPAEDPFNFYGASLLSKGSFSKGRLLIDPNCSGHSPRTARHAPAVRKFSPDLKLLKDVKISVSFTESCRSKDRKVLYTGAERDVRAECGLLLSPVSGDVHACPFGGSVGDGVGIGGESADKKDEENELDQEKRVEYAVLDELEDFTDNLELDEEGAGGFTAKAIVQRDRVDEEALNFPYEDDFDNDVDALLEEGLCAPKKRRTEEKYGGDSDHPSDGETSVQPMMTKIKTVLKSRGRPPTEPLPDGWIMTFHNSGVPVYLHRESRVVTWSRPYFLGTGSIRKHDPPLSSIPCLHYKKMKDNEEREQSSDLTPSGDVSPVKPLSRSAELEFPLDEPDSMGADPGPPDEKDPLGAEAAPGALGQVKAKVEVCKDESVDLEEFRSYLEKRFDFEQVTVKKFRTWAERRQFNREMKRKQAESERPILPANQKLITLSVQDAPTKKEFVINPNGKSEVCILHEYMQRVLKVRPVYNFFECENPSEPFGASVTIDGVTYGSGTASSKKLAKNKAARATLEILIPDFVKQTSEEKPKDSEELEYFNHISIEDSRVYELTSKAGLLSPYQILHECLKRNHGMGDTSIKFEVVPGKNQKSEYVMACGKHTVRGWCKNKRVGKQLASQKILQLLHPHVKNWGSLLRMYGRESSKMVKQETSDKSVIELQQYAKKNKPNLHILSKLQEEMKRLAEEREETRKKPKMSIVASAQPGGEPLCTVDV
UniProt Q8IY37, 893-913: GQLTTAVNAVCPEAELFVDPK
UniProt Q9H147: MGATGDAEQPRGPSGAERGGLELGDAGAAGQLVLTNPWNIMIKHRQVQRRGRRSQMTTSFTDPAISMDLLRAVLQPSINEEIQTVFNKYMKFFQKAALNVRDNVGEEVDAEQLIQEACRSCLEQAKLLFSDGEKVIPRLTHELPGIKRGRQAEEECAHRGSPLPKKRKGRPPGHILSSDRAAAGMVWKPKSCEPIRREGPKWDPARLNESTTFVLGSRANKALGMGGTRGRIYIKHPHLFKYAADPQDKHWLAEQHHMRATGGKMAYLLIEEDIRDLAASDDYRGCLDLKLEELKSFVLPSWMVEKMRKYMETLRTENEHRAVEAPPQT
UniProt Q9NYP3: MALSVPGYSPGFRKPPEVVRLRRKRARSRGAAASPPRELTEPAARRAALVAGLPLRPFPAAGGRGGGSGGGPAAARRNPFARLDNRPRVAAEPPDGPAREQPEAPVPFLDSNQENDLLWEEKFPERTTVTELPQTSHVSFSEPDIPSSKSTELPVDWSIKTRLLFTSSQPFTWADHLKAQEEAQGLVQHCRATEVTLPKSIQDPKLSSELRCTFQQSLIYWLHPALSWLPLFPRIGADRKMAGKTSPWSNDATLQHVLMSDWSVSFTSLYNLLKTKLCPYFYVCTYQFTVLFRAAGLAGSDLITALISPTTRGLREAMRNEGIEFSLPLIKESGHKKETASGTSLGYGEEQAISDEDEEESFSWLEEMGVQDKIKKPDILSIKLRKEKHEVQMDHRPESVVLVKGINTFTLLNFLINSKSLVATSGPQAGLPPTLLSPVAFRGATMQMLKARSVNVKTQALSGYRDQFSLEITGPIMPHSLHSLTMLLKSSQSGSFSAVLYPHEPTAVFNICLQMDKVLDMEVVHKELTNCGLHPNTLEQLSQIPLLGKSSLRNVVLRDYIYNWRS
UniProt Q99615: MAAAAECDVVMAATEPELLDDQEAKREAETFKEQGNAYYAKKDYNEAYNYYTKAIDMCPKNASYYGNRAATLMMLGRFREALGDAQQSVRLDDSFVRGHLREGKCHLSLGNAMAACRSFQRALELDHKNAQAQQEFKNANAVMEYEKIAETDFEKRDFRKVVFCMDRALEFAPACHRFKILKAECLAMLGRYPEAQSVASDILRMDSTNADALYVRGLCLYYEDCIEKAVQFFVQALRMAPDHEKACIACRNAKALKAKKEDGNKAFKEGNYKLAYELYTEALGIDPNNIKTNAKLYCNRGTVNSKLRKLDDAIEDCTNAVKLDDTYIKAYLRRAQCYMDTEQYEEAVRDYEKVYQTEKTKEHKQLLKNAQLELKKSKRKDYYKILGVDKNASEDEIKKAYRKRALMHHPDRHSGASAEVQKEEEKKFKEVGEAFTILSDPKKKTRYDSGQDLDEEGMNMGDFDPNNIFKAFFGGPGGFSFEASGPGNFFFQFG

What was measured:
[1] = compound: ClCC(=O)N[C@@H]1CCCc2ccccc12; test: log2 mean competition ratio of IA-DTB cysteine labelling (DMSO/compound) (log2 ratio); higher = stronger cysteine engagement by compound; conditions: treatment time: 4 h, cell line lysate: HEK293T
Protocol: (§1)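 IA-DTB competitive cysteine chemoproteomics in HEK293T RIPA lysate. Lysates were treated with compound 29 or 30 at 50 or 200 µM for 4 h, then IA-DTB (500 µM, 1 h), trypsin-digested, NeutrAvidin-enriched and analysed by diaPASEF. Competition ratio = intensity DMSO / intensity compound (n=4 treated, n=64 DMSO); binding: mean log2 CR ≥ 1 and p ≤ 0.05 plus QC filters. Target is the cysteine site.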

[2] = compound: ClCC(=O)N[C@H]1CCCc2ccccc12; test: as above; conditions: treatment time: 4 h, cell line lysate: HEK293T
Protocol: as §1

In the case of DNMT3B C393 (UniProt Q9UBC3), the “log2 mean competition ratio” value ([1]; 50 µM) is reported as -0.159, the “log2 mean competition ratio” value ([1]; 200 µM) is reported as -0.0435 and the “log2 mean competition ratio” value ([2]; 50 µM) is reported as -0.158. The “log2 mean competition ratio” value ([2]; 200 µM) was 0.057.
DICER1 C686 (UniProt Q9UPY3) was tested, and the “log2 mean competition ratio” value ([1]; 50 µM) was -0.08, the “log2 mean competition ratio” value ([1]; 200 µM) was -0.219 and the “log2 mean competition ratio” value ([2]; 50 µM) was -0.0166. The “log2 mean competition ratio” value ([2]; 200 µM) was -0.261.
DEPTOR C247 was tested, and the “log2 mean competition ratio” value ([1]; 50 µM) was 0.224, the “log2 mean competition ratio” value ([1]; 200 µM) was -0.169 and the “log2 mean competition ratio” value ([2]; 50 µM) was 0.153. The “log2 mean competition ratio” value ([2]; 200 µM) was 0.13.
With DNMT3A C387 (UniProt Q9Y6K1) the “log2 mean competition ratio” value ([1]; 50 µM) was 0.128, the “log2 mean competition ratio” value ([1]; 200 µM) was 0.192 and the “log2 mean competition ratio” value ([2]; 50 µM) was -0.375. For the same target, the “log2 mean competition ratio” value ([2]; 200 µM) was -0.00563.
DHX38 C618 (UniProt Q92620) was tested, and the “log2 mean competition ratio” value ([1]; 50 µM) was -0.0535, the “log2 mean competition ratio” value ([1]; 200 µM) was 0.0339 and the “log2 mean competition ratio” value ([2]; 50 µM) was -0.33. The “log2 mean competition ratio” value ([2]; 200 µM) was -0.271.
DHX29 C1025 (UniProt Q7Z478) was tested, and the “log2 mean competition ratio” value ([1]; 50 µM) was -0.00196, the “log2 mean competition ratio” value ([1]; 200 µM) was -0.242 and the “log2 mean competition ratio” value ([2]; 50 µM) was -0.126. For the same target, the “log2 mean competition ratio” value ([2]; 200 µM) was -0.0788.
DHX36 C234 (UniProt Q9H2U1) was tested, and the “log2 mean competition ratio” value ([1]; 50 µM) was -0.333, the “log2 mean competition ratio” value ([1]; 200 µM) was 0.0508 and the “log2 mean competition ratio” value ([2]; 50 µM) was -0.139. The “log2 mean competition ratio” value ([2]; 200 µM) was -0.095.
In the case of DOCK1 C1157 (UniProt Q14185), the “log2 mean competition ratio” value ([1]; 50 µM) is reported as 0.169, the “log2 mean competition ratio” value ([1]; 200 µM) is reported as -0.367 and the “log2 mean competition ratio” value ([2]; 50 µM) is reported as 0.479. The “log2 mean competition ratio” value ([2]; 200 µM) was -0.15.
In the case of DNAJC13 C12 (UniProt O75165), the “log2 mean competition ratio” value ([1]; 50 µM) is reported as -0.0624, the “log2 mean competition ratio” value ([1]; 200 µM) is reported as -0.522 and the “log2 mean competition ratio” value ([2]; 50 µM) is reported as 0.0295. For the same target, the “log2 mean competition ratio” value ([2]; 200 µM) was -0.289.
DHX33 C579 (UniProt Q9H6R0) was tested, and the “log2 mean competition ratio” value ([1]; 50 µM) was 0.0108, the “log2 mean competition ratio” value ([1]; 200 µM) was 0.0712 and the “log2 mean competition ratio” value ([2]; 50 µM) was -0.376. For the same target, the “log2 mean competition ratio” value ([2]; 200 µM) was -0.0659.
In the case of DHX33 C190 (UniProt Q9H6R0), the “log2 mean competition ratio” value ([1]; 50 µM) is reported as -0.195, the “log2 mean competition ratio” value ([1]; 200 µM) is reported as 0.227 and the “log2 mean competition ratio” value ([2]; 50 µM) is reported as -0.362. The “log2 mean competition ratio” value ([2]; 200 µM) was -0.0677.
DNA2 C718 (UniProt P51530) was tested, and the “log2 mean competition ratio” value ([1]; 50 µM) was -0.198, the “log2 mean competition ratio” value ([1]; 200 µM) was 0.295 and the “log2 mean competition ratio” value ([2]; 50 µM) was -0.0417. For the same target, the “log2 mean competition ratio” value ([2]; 200 µM) was 0.522.
In the case of DNAJC13 C261 (UniProt O75165), the “log2 mean competition ratio” value ([1]; 50 µM) is reported as -0.252, the “log2 mean competition ratio” value ([1]; 200 µM) is reported as 0.0124 and the “log2 mean competition ratio” value ([2]; 50 µM) is reported as -0.484. For the same target, the “log2 mean competition ratio” value ([2]; 200 µM) was -0.0428.
For DOCK7 C2125 (UniProt Q96N67), the “log2 mean competition ratio” value ([1]; 50 µM) was 0.247, the “log2 mean competition ratio” value ([1]; 200 µM) was -0.487 and the “log2 mean competition ratio” value ([2]; 50 µM) was 0.39. The “log2 mean competition ratio” value ([2]; 200 µM) was -0.429.
With DRAP1 C54 the “log2 mean competition ratio” value ([1]; 50 µM) was 0.134, the “log2 mean competition ratio” value ([1]; 200 µM) was 0.104 and the “log2 mean competition ratio” value ([2]; 50 µM) was 0.0513. The “log2 mean competition ratio” value ([2]; 200 µM) was 0.14.
In the case of DICER1 C1122 (UniProt Q9UPY3), the “log2 mean competition ratio” value ([1]; 50 µM) is reported as -0.259, the “log2 mean competition ratio” value ([1]; 200 µM) is reported as 0.275 and the “log2 mean competition ratio” value ([2]; 50 µM) is reported as 0.0748. The “log2 mean competition ratio” value ([2]; 200 µM) was 0.247.
In the case of DGCR8 C769 (UniProt Q8WYQ5), the “log2 mean competition ratio” value ([1]; 50 µM) is reported as 0.118, the “log2 mean competition ratio” value ([1]; 200 µM) is reported as -0.466 and the “log2 mean competition ratio” value ([2]; 50 µM) is reported as 0.0369. The “log2 mean competition ratio” value ([2]; 200 µM) was 0.0727.
In the case of DOCK4 C293, the “log2 mean competition ratio” value ([1]; 50 µM) is reported as 0.215, the “log2 mean competition ratio” value ([1]; 200 µM) is reported as -0.0179 and the “log2 mean competition ratio” value ([2]; 50 µM) is reported as 0.165. The “log2 mean competition ratio” value ([2]; 200 µM) was -0.1.
With DOCK6 C1853 (UniProt Q96HP0) the “log2 mean competition ratio” value ([1]; 50 µM) was -0.205, the “log2 mean competition ratio” value ([1]; 200 µM) was -0.553 and the “log2 mean competition ratio” value ([2]; 50 µM) was 0.0171. For the same target, the “log2 mean competition ratio” value ([2]; 200 µM) was -0.0319.
With DHX37 C903 (UniProt Q8IY37) the “log2 mean competition ratio” value ([1]; 50 µM) was -0.0275, the “log2 mean competition ratio” value ([1]; 200 µM) was -0.0328 and the “log2 mean competition ratio” value ([2]; 50 µM) was -0.251. For the same target, the “log2 mean competition ratio” value ([2]; 200 µM) was -0.147.
DNTTIP1 C156 (UniProt Q9H147) was tested, and the “log2 mean competition ratio” value ([1]; 50 µM) was -0.219, the “log2 mean competition ratio” value ([1]; 200 µM) was 0.48 and the “log2 mean competition ratio” value ([2]; 50 µM) was -0.166. For the same target, the “log2 mean competition ratio” value ([2]; 200 µM) was 0.07.
For DONSON C190 (UniProt Q9NYP3), the “log2 mean competition ratio” value ([1]; 50 µM) was 0.083, the “log2 mean competition ratio” value ([1]; 200 µM) was 0.134 and the “log2 mean competition ratio” value ([2]; 50 µM) was -0.0553. The “log2 mean competition ratio” value ([2]; 200 µM) was 0.134.
With DENND4C C955 (UniProt Q5VZ89) the “log2 mean competition ratio” value ([1]; 50 µM) was -0.482, the “log2 mean competition ratio” value ([1]; 200 µM) was -0.12 and the “log2 mean competition ratio” value ([2]; 50 µM) was -0.52. The “log2 mean competition ratio” value ([2]; 200 µM) was -0.00346.
With DMXL1 C191 (UniProt Q9Y485) the “log2 mean competition ratio” value ([1]; 50 µM) was -0.0368, the “log2 mean competition ratio” value ([1]; 200 µM) was -0.0887 and the “log2 mean competition ratio” value ([2]; 50 µM) was -0.0627. The “log2 mean competition ratio” value ([2]; 200 µM) was -0.17.
In the case of DOCK11 C615, the “log2 mean competition ratio” value ([1]; 50 µM) is reported as 0.25, the “log2 mean competition ratio” value ([1]; 200 µM) is reported as -0.245 and the “log2 mean competition ratio” value ([2]; 50 µM) is reported as 0.146. The “log2 mean competition ratio” value ([2]; 200 µM) was -0.0116.
With DIAPH1 C964 the “log2 mean competition ratio” value ([1]; 50 µM) was 0.259, the “log2 mean competition ratio” value ([1]; 200 µM) was 0.085 and the “log2 mean competition ratio” value ([2]; 50 µM) was -0.115. The “log2 mean competition ratio” value ([2]; 200 µM) was -0.287.
In the case of DNAJC7 C164 (UniProt Q99615), the “log2 mean competition ratio” value ([1]; 50 µM) is reported as -0.0304, the “log2 mean competition ratio” value ([1]; 200 µM) is reported as 0.279 and the “log2 mean competition ratio” value ([2]; 50 µM) is reported as -0.0546. The “log2 mean competition ratio” value ([2]; 200 µM) was 0.182.
